The values below come from article doi:10.1101/2020.10.21.349357.

Amino acid sequences for entries named in this document (tags omitted).
UniProt Q9Y6K9, whole entry: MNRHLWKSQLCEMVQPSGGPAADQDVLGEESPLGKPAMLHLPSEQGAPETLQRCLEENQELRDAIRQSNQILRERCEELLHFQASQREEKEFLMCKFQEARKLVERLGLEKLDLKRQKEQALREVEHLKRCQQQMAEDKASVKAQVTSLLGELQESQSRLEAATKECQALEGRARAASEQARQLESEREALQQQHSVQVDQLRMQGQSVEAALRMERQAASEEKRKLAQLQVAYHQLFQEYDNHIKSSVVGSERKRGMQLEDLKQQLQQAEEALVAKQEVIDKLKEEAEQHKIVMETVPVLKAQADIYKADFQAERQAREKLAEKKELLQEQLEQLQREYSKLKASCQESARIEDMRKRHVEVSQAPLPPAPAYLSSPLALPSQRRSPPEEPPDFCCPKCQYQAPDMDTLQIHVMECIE
UniProt O88522, whole entry: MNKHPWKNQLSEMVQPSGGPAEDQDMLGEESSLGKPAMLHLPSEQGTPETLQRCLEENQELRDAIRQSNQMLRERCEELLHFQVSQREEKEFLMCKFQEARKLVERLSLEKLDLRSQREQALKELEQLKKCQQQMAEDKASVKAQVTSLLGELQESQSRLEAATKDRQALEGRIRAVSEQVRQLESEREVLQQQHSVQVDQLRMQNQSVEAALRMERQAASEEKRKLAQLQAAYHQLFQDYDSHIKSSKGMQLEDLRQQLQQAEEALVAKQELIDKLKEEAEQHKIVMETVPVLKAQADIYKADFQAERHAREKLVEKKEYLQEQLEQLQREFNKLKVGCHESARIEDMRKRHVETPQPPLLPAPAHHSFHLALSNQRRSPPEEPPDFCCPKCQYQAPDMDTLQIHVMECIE

Read-outs that look alike come from different tables or passages of the source. These are yes or no findings as the source states them, for the method shown. For some of these results: Binding seen in cells or lysates may run through a third protein. Some results given as binding are weak or reduced against the parent protein; the word gives no strength. For some of these results: Tags and fused reporters may be left off the sequences shown.

Test in all cases: co-IP
The target in test [1] is Flag-tagged NEMO (UniProt Q9Y6K9).
Test [2] has the same target. The source holds these as a separate data set.
Test [3] deals with endogenous NEMO of mouse peritoneal macrophages (mouse (endogenous in peritoneal macrophages)) (UniProt O88522).

B1: HA-tagged N4BP1 (full length) (protein, UniProt O75113 1-896)
chain: MAARAVLDEFTAPAEKAELLEQSRGRIEGLFGVSLAVLGALGAEEPLPARIWLQLCGAQEAVHSAKEYIKGICEPELEERECYPKDMHCIFVGAESLFLKSLIQDTCADLCILDIGLLGIRGSAEAVVMARSHIQQFVKLFENKENLPSSQKESEVKREFKQFVEAHADNYTMDLLILPTSLKKELLTLTQGEENLFETGDDEVIEMRDSQQTEFTQNAATGLNISRDETVLQEEARNKAGTPVSELTKQMDTVLSSSPDVLFDPINGLTPDEEALSNERICQKRRFSDSEERHTKKQFSLENVQEGEILHDAKTLAGNVIADLSDSSADSENLSPDIKETTEEMEYNILVNFFKTMGYSQEIVEKVIKVYGPSTEPLLLLEEIEKENKRFQEDREFSAGTVYPETNKTKNKGVYSSTNELTTDSTPKKTQAHTQQNMVEKFSQLPFKVEAKPCTSNCRINTFRTVPIEQKHEVWGSNQNYICNTDPETDGLSPSVASPSPKEVNFVSRGASSHQPRVPLFPENGLHQQPEPLLPNNMKSACEKRLGCCSSPHSKPNCSTLSPPMPLPQLLPSVTDARSAGPSDHIDSSVTGVQRFRDTLKIPYKLELKNEPGRTDLKHIVIDGSNVAITHGLKKFFSCRGIAIAVEYFWKLGNRNITVFVPQWRTRRDPNVTEQHFLTQLQELGILSLTPARMVFGERIASHDDRFLLHLADKTGGIIVTNDNFREFVNESVSWREIITKRLLQYTFVGDIFMVPDDPLGRSGPRLEEFLQKEVCLRDMQPLLSALPNVGMFDPSFRVPGTQAASTSHQPPTRIQGAPSSHWLPQQPHFPLLPALPSLQQNLPMPAQRSSAETNELREALLKIFPDSEQRLKIDQILVAHPYMKDLNALSAMVLD
Take B1: the binding result in test [1] and in test [2] was “binds” each time.

B2: endogenous N4BP1 of mouse peritoneal macrophages (protein, UniProt Q6A037 1-893)
chain: MAARVVLDEFTAPAEKAALLERSRGRIEALFGVGLAVLGALGAEEPLPARIWLQLRGAQEAVHSAKEYIKGICEPELEEKECYPKAMHCIFVGAQSLFLKSLIQDTCADLCVLDTGLLGIRGSAEAVVMARSHIQQFVKLFESNENLPSNQRESEIKREFRQFVEAHADSYTMDLLILPTSLKKELLSLTQGEESLFETDDDVITVGDVRPPEYTQSAATGPSSARDEVVVQEDSRNKARTPVSELTKHMDTVFSSSPDVLFVPVNGLSPDEDALSKDRVCHKRRSSDTEERHTKKQFSLENVPEGELLPDGKGSAGNEVIDLSDPASNSTNLSPDGKDTTEEMEYNILVNFFKTMGYSQEIVEKVIREYGPSTEPLLLLEEIEKENKRLQEDRDFPPCTVYPDASQSRNAGVGSTTNELTADSTPKKAQSHTEQSMVERFSQLPFKDSKHCTSNCKVNSFRTVPVGQKQEIWGSKQNSSCTVDLETDGHSASAASASPKDISFVSRGASGHQQRNPAFPENGFQQQTEPLLPNNTKPACEKRSGSCSSPQPKPNYPPLSPPLPLPQLLPSVTEARLGGSSDHIDSSVTGVQRFRDTLKIPYKLELKNEPGRADLKHIVIDGSNVAITHGLKKFFSCRGIAIAVEYFWKLGNRNITVFVPQWRTRRDPNITEQHFLTQLQELGILSLTPARMVFGERIASHDDRFLLHLADKTGGIIVTNDNFREFVTESVSWREIITKRLLQYTFVGDIFMVPDDPLGRNGPRLEEFLRKEAFLRHMQPLLNALPSVGTFDPGFRSPSTQVANNSHQPPPRIQTSSSPWLPQQSHFTALATLPSMQQNPPLPAQRSSAETSELREALLKIFPDSEQKLKIDQILAAHPYMKDLNALSALVLD
B2: in test [3], the binding entry was “binds”.

B3: endogenous IKKβ of mouse peritoneal macrophages (enzyme, UniProt O88351 1-757)
chain: MSWSPSLPTQTCGAWEMKERLGTGGFGNVIRWHNQATGEQIAIKQCRQELSPKNRNRWCLEIQIMRRLNHPNVVAARDVPEGMQNLAPNDLPLLAMEYCQGGDLRRYLNQFENCCGLREGAVLTLLSDIASALRYLHENRIIHRDLKPENIVLQQGEKRLIHKIIDLGYAKELDQGSLCTSFVGTLQYLAPELLEQQKYTVTVDYWSFGTLAFECITGFRPFLPNWQPVQWHSKVRQKSEVDIVVSEDLNGAVKFSSSLPFPNNLNSVLAERLEKWLQLMLMWHPRQRGTDPQYGPNGCFRALDDILNLKLVHVLNMVTGTVHTYPVTEDESLQSLKTRIQENTGILETDQELLQKAGLVLLPDKPATQCISDSKTNEGLTLDMDLVFLLDNSKINYETQITPRPPPESVSCILQEPKRNLSFFQLRKVWGQVWHSIQTLKEDCNRLQQGQRAAMMSLLRNNSCLSKMKNAMASTAQQLKAKLDFFKTSIQIDLEKYKEQTEFGITSDKLLLAWREMEQAVEQCGRENDVKHLVERMMALQTDIVDLQRSPMGRKQGGTLDDLEEQARELYRKLREKPRDQRTEGDSQEMVRLLLQAIQSFEKKVRVIYTQLSKTVVCKQKALELLPKVEEVVSLMNEDERTVVRLQEKRQKELWNLLKIACSKVRGPVSGSPDSMNVSRLSHPGQLMSQPSSACDSLPESDKKSEELVAEAHALCSRLESALQDTVKEQDRSFTTLDWSWLQMEDEERCSLEQACD
Regarding B3, in test [3], the binding result is “binds”.
